Experimental data from PubChem BioAssay AID493014 (National Center for Advancing Translational Sciences (NCATS), 2011).
Screen size: about 340,000 compounds; about 170 (0.05%) were called active. Inconclusive means that the source gave no clear call. Such entries were picked first, then a sample of the others. The call rests on the fitted dose curve; in most records, active means well fitted inhibition curve with a large enough effect in the signal ratio, with a control signal flat (not every such curve was filed as active); inconclusive means small, poorly fitted or top-dose-only effect, or effect the other way, or a change in a side signal; inactive means flat fitted curve, though single readings scatter; the % refers to the signal ratio. Potencies of inconclusive entries are doubtful fits and often do not repeat.

assay: qHTS Assay to Find Inhibitors of Chronic Active B-Cell Receptor Signaling; conditions: ABC-DLBCL IkBa-CBG/CBR reporter, luminescence ratio (green luciferase fused to IkBa over red control in TMD8 lymphoma cells), 4 h; activity change, negative = inhibition: at 46.1 µM (top of the series) unless noted;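 on activity change, negative = inhibition: plate controls were basal doxycycline-induced cells for no effect and cells given 10 µM MG132 for full effect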
Outline: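 Cell line TMD8 (human ABC DLBCL), stably expressing tet-inducible CBG68-IkBa fusion and CBR; IMDM/0.5% FBS; cpd up to 46 uM; dox induction, 4 h, 37C/5% CO2; dual luminescence; green/red ratio; MG132 control.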
Potency means the concentration at half of the fitted maximal effect.

| Compound | Potency | activity change, negative = inhibition |
| --- | --- | --- |
| CCS(=O)(=O)N1CCCC(C(=O)NCCc2ccc(OC)c(OC)c2)C1 (stereo unspecified) | inconclusive: 14.6 µM [rising, partial curve, poor fit] | – |
| O=C1CS/C(=N\N=C\c2ccco2)N1c1ccccc1 | – | inactive |
| CN(C)S(=O)(=O)c1ccc(NC(=O)C2CC(=O)N(Cc3ccccc3)C2)cc1 (stereo unspecified) | – | inactive |
| COCCCn1c(=N)c(C(=O)NC2CCCCC2)cc2c(=O)n3ccccc3nc21 | – | inactive |
| CCOC(=O)c1sc(=NC(=O)c2ccco2)n(C)c1C | – | inconclusive: -6.88% |
| O=C(c1ccco1)N1CCN(c2nc(C3CC3)nc3c2nnn3Cc2ccccc2Cl)CC1 | – | inactive |
| O=C(CCNS(=O)(=O)c1cccc2nonc12)NCCc1ccc(Cl)cc1 | – | inconclusive: 8.31% |
| COC(=O)c1cc2c(ccn2-c2ccc(F)cc2)n1CC(=O)OC(C)C | – | inactive |
| O=C(Nc1nc2ccccc2[nH]1)c1ccc(Br)o1 | inconclusive: 12.6 µM [falling, partial curve] | – |
| Cc1nc2cc(-c3sccc3-n3cccc3)nn2c(C)c1C | – | inconclusive: -12.5% |
| CC(=O)Nc1ccc(NCN2C(=O)C3C4CCC(C4)C3C2=O)cc1 (stereo unspecified) | – | inactive |
| COc1ccc(C(CNC(=O)c2cccc(S(=O)(=O)NCc3ccccc3)c2)N(C)C)cc1 (stereo unspecified) | – | inactive |
| COc1cc(C(CC(=O)N2CCOCC2)c2c(OC)cc(OC)c3ccc(=O)oc23)cc(OC)c1OC (stereo unspecified) | – | inconclusive: -0.985% |
| O=C(N/N=C/c1ccc(OC(F)F)cc1)C1=COCCO1 | inconclusive: 25.1 µM [falling, single point] | – |
| CC(C)N(C#N)c1nc(N2CCOCC2)nc(N2CCOCC2)n1 | inconclusive: 11.2 µM [falling, partial curve] | – |
| COc1ccc(OC)c(N2Cc3ccccc3C2)c1 | – | inconclusive: 0.121% |
| CCC(C(=O)NCCc1c[nH]c2cc(OC)ccc12)c1ccccc1 (stereo unspecified) | – | inactive |
| COc1ccc(-c2nnc(SCC(=O)N3CCCC3)o2)cc1 | – | inconclusive: 2.88% |
| O=C(CCC1CCCCC1)Nc1ccc(S(=O)(=O)Nc2nccs2)cc1 | inconclusive: 29.1 µM [falling, single point] | – |
| COC(=O)c1ccc(NC(=S)NC2CC(C)(C)NC(C)(C)C2)cc1 | – | inconclusive: 1.74% |
| c1c2c(cc3sc(N4CCCCC4)nc13)OCCO2 | inconclusive: 29.1 µM [rising, single point] | – |

| Compound | Potency | activity change, negative = inhibition |
| --- | --- | --- |
| Cc1cc(C)nc(N/N=C/C2=C(N3CCOCC3)C(=C\c3ccc(Cl)cc3)/CC2)n1 | – | inactive |
| CCNc1nc(N)nc(Oc2ccc(OCC)nn2)n1 | – | inconclusive: -6.98% |
| O=C(CN1CCN(c2ccccc2F)CC1)c1c[nH]c2ccccc12 | inconclusive: 11.2 µM [falling, partial curve] | – |
| Cc1ccc(C(=O)C(C)OC(=O)Cc2n[nH]c(=O)c3ccccc23)cc1C (stereo unspecified) | – | inconclusive: -5% |
| CCOC(=O)C1=C(C)N(CCCCCC(=O)O)C(=O)NC1c1ccc(Cl)cc1 (stereo unspecified) | inconclusive: 20 µM [falling, partial curve] | – |
| COc1ccc(CNC(=S)N/N=C/c2ccc(O)c(OC)c2)cc1 | inconclusive: 29.1 µM [falling, single point] | – |
| COc1ccc(NC(=O)c2c(N)no[n+]2[O-])cc1 | – | inconclusive: -10.2% |
| O=S1(=O)N=C(N=Nc2c(O)[nH]c3ccccc23)c2ccccc21 | – | inconclusive: -14.5% |
| CCN(CC)S(=O)(=O)c1ccc2c(c1)nc(SCC(=O)N1CCCCCC1)n2-c1ccc(OC)cc1 | inconclusive: 6.51 µM [falling, single point] | – |
| Cc1c(-c2ccccc2)[n+](=O)c(-c2ccc(Cl)cc2)c(C)n1[O-] | – | inconclusive: 2.85% |
| Cc1ccccc1C1C2=C(Nc3[nH]n(-c4ccccc4)c(=O)c31)c1ccccc1C2=O (stereo unspecified) | – | inconclusive: 0.264% |
| O=C(N/N=C/c1cccnc1)c1ccccc1 | inconclusive: 25.1 µM [falling, single point] | – |
| COc1ccccc1/C=C/C(=O)NC(=S)Nc1ccccn1 | inconclusive: 35.5 µM [rising, single point] | – |
| COc1ccc(-c2cc(=O)c3ccccc3o2)cc1 | – | inconclusive: -6.82% |
| O=C(CSc1ccc([N+](=O)[O-])cc1)Nc1cccc(S(=O)(=O)Nc2ccccc2F)c1 | – | inconclusive: -5.84% |
| CCOc1ccccc1N1CCN(CC(=O)Nc2nnc(CC)s2)CC1 | inconclusive: 0.0411 µM [falling, full curve, poor fit] | – |
| COc1cc(OC)cc(C(=O)N[C@H](C(=O)Nc2cc(F)ccc2C)C(C)C)c1 | – | inactive |
| Cc1ccc(S(=O)(=O)Nc2nc(C)c(C(=O)NN)s2)cc1 | inconclusive: 15.8 µM [falling, partial curve, poor fit] | – |
| Fc1ccccc1C1c2[nH]c3ccccc3c2CCN1Cc1cccn1-c1ncccn1 (stereo unspecified) | – | inconclusive: 7.72% |
| O=C(CSc1ccccn1)C12CC3CC(CC(C3)C1)C2 | – | inconclusive: 4.28% |

Part of the list above in another layout:
Compound | Potency | activity change, negative = inhibition
Fc1ccccc1C1c2[nH]c3ccccc3c2CCN1Cc1cccn1-c1ncccn1 (stereo unspecified) | – | inconclusive: 7.72%
O=C(CSc1ccccn1)C12CC3CC(CC(C3)C1)C2 | – | inconclusive: 4.28%
